# Results reported in patent publication US20260274807A1 (University of Health Sciences and Pharmacy in St. Louis, priority 2023, published 2026).
# For at least one compound, name, drawing or mass did not settle the structure.
# Experiments:
# [1] = target: T1, ERRα (Homo sapiens, UniProt P11474); experiment: ERRE luciferase reporter assay in HEK293 cells transfected with pcDNA3.1 ERRα; type: cell-based; parameters: key: * <1 μM; ** 1-5 μM; *** >5 μM; i.a. (inactive); details: HEK293 cells transfected with ERRE reporter construct and pcDNA3.1 ERRα; compound for 24 hours; luciferase activity
# T1 construct: expressed in transfected cells; host or cells: HEK293
# T1 sequence (P11474 1-423): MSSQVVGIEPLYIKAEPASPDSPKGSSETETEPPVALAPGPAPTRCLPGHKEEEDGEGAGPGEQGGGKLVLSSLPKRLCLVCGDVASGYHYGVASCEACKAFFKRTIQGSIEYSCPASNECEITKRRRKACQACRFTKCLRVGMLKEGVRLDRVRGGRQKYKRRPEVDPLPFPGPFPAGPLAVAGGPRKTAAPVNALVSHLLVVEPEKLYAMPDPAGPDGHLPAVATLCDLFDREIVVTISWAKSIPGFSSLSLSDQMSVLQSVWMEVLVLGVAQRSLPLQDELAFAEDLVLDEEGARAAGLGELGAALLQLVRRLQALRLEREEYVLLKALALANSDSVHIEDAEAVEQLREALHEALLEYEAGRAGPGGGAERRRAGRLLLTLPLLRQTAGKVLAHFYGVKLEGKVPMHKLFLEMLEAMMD
# Experimental: (§1) HEK293 cells were maintained in Dulbecco's modified Eagles medium (DMEM) supplemented with 10% fetal bovine serum at 37° C. under […]. […] Cells were transfected with ERRE reporter construct and pcDNA3.1 ERRα or ERRγ. Twenty-four-hours post-transfection, the cells were treated with vehicle or compound (various concentrations) for 24 hours (4 wells per dose). Luciferase activity was measured using the One-Glo Tox luciferase reporter assay system (Promega) and EC50s were calculated using GraphPad Prism software.
# [2] = target: T2, ERRγ (Homo sapiens, UniProt P62508); experiment: ERRE luciferase reporter assay in HEK293 cells transfected with pcDNA3.1 ERRγ; type: cell-based; parameters: key: * <1 μM; ** 1-5 μM; *** >5 μM; i.a. (inactive); details: HEK293 cells transfected with ERRE reporter construct and pcDNA3.1 ERRγ; compound for 24 hours; luciferase activity
# T2 construct: expressed in transfected cells; host or cells: HEK293
# T2 sequence (P62508 1-458): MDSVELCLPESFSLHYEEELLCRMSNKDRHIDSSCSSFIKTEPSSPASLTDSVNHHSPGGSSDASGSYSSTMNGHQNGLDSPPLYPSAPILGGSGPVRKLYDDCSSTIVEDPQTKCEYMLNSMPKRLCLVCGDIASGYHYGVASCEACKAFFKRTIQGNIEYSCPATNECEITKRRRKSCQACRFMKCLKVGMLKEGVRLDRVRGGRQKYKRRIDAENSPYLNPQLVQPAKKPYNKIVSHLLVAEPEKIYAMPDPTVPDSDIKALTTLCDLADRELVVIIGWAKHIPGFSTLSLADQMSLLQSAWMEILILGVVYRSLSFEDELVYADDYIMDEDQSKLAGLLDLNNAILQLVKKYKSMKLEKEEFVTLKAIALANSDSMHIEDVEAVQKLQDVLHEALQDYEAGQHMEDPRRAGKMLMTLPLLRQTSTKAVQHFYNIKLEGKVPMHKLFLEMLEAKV
# Experimental: as §1
smiles,measurement,setting,value
"Nc1ccc(Br)cc1-c1nnc(-c2ccccc2)o1 [Entry 73, 4-bromo-2-(5-phenyl-1,3,4-oxadiazol-2-yl)aniline]",EC50 (ERRα) μM,[1],i.a.
same,EC50 (ERRγ) μM,[2],i.a.
